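Malaria parasite (P. falciparum) lines kept in red blood cells; parasite DNA is measured by SYBR Green fluorescence after lysis, 72 h after compound addition. Each compound was titrated across a series from about 0.000037 to 29 µM. The number is the fitted AC50, the concentration giving a half-maximal change in signal; a lower value means higher potency, whether the curve shows a decrease or an increase. Calls follow the curve class and fit quality: every row here is inconclusive, covering signal-raising curves and weak, poorly fitted, partial or highest-dose-only inhibition curves.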

Values are in µM. Every entry below has the call inconclusive. Only part of the assay is shown, chiefly results filed as inconclusive. A potency from a partial, single-point or poor curve is only a rough figure. The first word of each remark tells which way the curve ran; it can be opposite to the aim of the assay.

structure | setting | potency (µM) | remark
CCN(CC)CCNC(=O)c1c(C)[nH]c(/C=C2\C(=O)Nc3ccc(F)cc32)c1C | CP305 | 12 | inhibitor, single point
C[Se]CCC(N)C(=O)O (stereo not shown) | CP215 | 21.33 | inhibitor, single point
C[Se]CCC(N)C(=O)O (stereo not shown) | CP297 | 21.33 | inhibitor, single point
C[Se]CCC(N)C(=O)O (stereo not shown) | CP256 | 17.78 | inhibitor, single point
NC(=O)CC[C@@H]1NC(=O)[C@H](Cc2ccccc2)NC(=O)[C@H](Cc2ccc(O)cc2)NC(=O)[C@@H](N)CSSC[C@@H](C(=O)N2CCC[C@H]2C(=O)N[C@@H](CCCN=C(N)N)C(=O)NCC(N)=O)NC(=O)[C@H](CC(N)=O)NC1=O | HB3 | 10 | inhibitor, single point
NC(=O)CC[C@@H]1NC(=O)[C@H](Cc2ccccc2)NC(=O)[C@H](Cc2ccc(O)cc2)NC(=O)[C@@H](N)CSSC[C@@H](C(=O)N2CCC[C@H]2C(=O)N[C@@H](CCCN=C(N)N)C(=O)NCC(N)=O)NC(=O)[C@H](CC(N)=O)NC1=O | DIV17 | 19.01 | inhibitor, single point
NC(=O)CC[C@@H]1NC(=O)[C@H](Cc2ccccc2)NC(=O)[C@H](Cc2ccc(O)cc2)NC(=O)[C@@H](N)CSSC[C@@H](C(=O)N2CCC[C@H]2C(=O)N[C@@H](CCCN=C(N)N)C(=O)NCC(N)=O)NC(=O)[C@H](CC(N)=O)NC1=O | N140 | 17.78 | inhibitor, single point
NC(=O)CC[C@@H]1NC(=O)[C@H](Cc2ccccc2)NC(=O)[C@H](Cc2ccc(O)cc2)NC(=O)[C@@H](N)CSSC[C@@H](C(=O)N2CCC[C@H]2C(=O)N[C@@H](CCCN=C(N)N)C(=O)NCC(N)=O)NC(=O)[C@H](CC(N)=O)NC1=O | CP265 | 15.85 | inhibitor, single point
NC(=O)CC[C@@H]1NC(=O)[C@H](Cc2ccccc2)NC(=O)[C@H](Cc2ccc(O)cc2)NC(=O)[C@@H](N)CSSC[C@@H](C(=O)N2CCC[C@H]2C(=O)N[C@@H](CCCN=C(N)N)C(=O)NCC(N)=O)NC(=O)[C@H](CC(N)=O)NC1=O | PC26 | 19.01 | inhibitor, single point
NC(=O)CC[C@@H]1NC(=O)[C@H](Cc2ccccc2)NC(=O)[C@H](Cc2ccc(O)cc2)NC(=O)[C@@H](N)CSSC[C@@H](C(=O)N2CCC[C@H]2C(=O)N[C@@H](CCCN=C(N)N)C(=O)NCC(N)=O)NC(=O)[C@H](CC(N)=O)NC1=O | TAB113 | 15.85 | inhibitor, single point
NC(=O)CC[C@@H]1NC(=O)[C@H](Cc2ccccc2)NC(=O)[C@H](Cc2ccc(O)cc2)NC(=O)[C@@H](N)CSSC[C@@H](C(=O)N2CCC[C@H]2C(=O)N[C@@H](CCCN=C(N)N)C(=O)NCC(N)=O)NC(=O)[C@H](CC(N)=O)NC1=O | CP191 | 15.85 | inhibitor, single point
NC(=O)CC[C@@H]1NC(=O)[C@H](Cc2ccccc2)NC(=O)[C@H](Cc2ccc(O)cc2)NC(=O)[C@@H](N)CSSC[C@@H](C(=O)N2CCC[C@H]2C(=O)N[C@@H](CCCN=C(N)N)C(=O)NCC(N)=O)NC(=O)[C@H](CC(N)=O)NC1=O | DFO2036 | 8.912 | inhibitor, partial curve, poor fit
NC(=O)CC[C@@H]1NC(=O)[C@H](Cc2ccccc2)NC(=O)[C@H](Cc2ccc(O)cc2)NC(=O)[C@@H](N)CSSC[C@@H](C(=O)N2CCC[C@H]2C(=O)N[C@@H](CCCN=C(N)N)C(=O)NCC(N)=O)NC(=O)[C@H](CC(N)=O)NC1=O | AS120 | 3.981 | inhibitor, single point
NC(=O)CC[C@@H]1NC(=O)[C@H](Cc2ccccc2)NC(=O)[C@H](Cc2ccc(O)cc2)NC(=O)[C@@H](N)CSSC[C@@H](C(=O)N2CCC[C@H]2C(=O)N[C@@H](CCCN=C(N)N)C(=O)NCC(N)=O)NC(=O)[C@H](CC(N)=O)NC1=O | PAD | 17.78 | inhibitor, single point
NC(=O)CC[C@@H]1NC(=O)[C@H](Cc2ccccc2)NC(=O)[C@H](Cc2ccc(O)cc2)NC(=O)[C@@H](N)CSSC[C@@H](C(=O)N2CCC[C@H]2C(=O)N[C@@H](CCCN=C(N)N)C(=O)NCC(N)=O)NC(=O)[C@H](CC(N)=O)NC1=O | P94_40 | 10 | inhibitor, single point
NC(=O)CC[C@@H]1NC(=O)[C@H](Cc2ccccc2)NC(=O)[C@H](Cc2ccc(O)cc2)NC(=O)[C@@H](N)CSSC[C@@H](C(=O)N2CCC[C@H]2C(=O)N[C@@H](CCCN=C(N)N)C(=O)NCC(N)=O)NC(=O)[C@H](CC(N)=O)NC1=O | TAB165 | 10 | inhibitor, single point
NC(=O)CC[C@@H]1NC(=O)[C@H](Cc2ccccc2)NC(=O)[C@H](Cc2ccc(O)cc2)NC(=O)[C@@H](N)CSSC[C@@H](C(=O)N2CCC[C@H]2C(=O)N[C@@H](CCCN=C(N)N)C(=O)NCC(N)=O)NC(=O)[C@H](CC(N)=O)NC1=O | CP335 | 19.01 | inhibitor, single point
NC(=O)CC[C@@H]1NC(=O)[C@H](Cc2ccccc2)NC(=O)[C@H](Cc2ccc(O)cc2)NC(=O)[C@@H](N)CSSC[C@@H](C(=O)N2CCC[C@H]2C(=O)N[C@@H](CCCN=C(N)N)C(=O)NCC(N)=O)NC(=O)[C@H](CC(N)=O)NC1=O | P93_24 | 11.22 | inhibitor, single point
NC(=O)CC[C@@H]1NC(=O)[C@H](Cc2ccccc2)NC(=O)[C@H](Cc2ccc(O)cc2)NC(=O)[C@@H](N)CSSC[C@@H](C(=O)N2CCC[C@H]2C(=O)N[C@@H](CCCN=C(N)N)C(=O)NCC(N)=O)NC(=O)[C@H](CC(N)=O)NC1=O | TAB109 | 11.22 | inhibitor, single point
NC(=O)CC[C@@H]1NC(=O)[C@H](Cc2ccccc2)NC(=O)[C@H](Cc2ccc(O)cc2)NC(=O)[C@@H](N)CSSC[C@@H](C(=O)N2CCC[C@H]2C(=O)N[C@@H](CCCN=C(N)N)C(=O)NCC(N)=O)NC(=O)[C@H](CC(N)=O)NC1=O | 7G8 | 11.22 | inhibitor, single point
NC(=O)CC[C@@H]1NC(=O)[C@H](Cc2ccccc2)NC(=O)[C@H](Cc2ccc(O)cc2)NC(=O)[C@@H](N)CSSC[C@@H](C(=O)N2CCC[C@H]2C(=O)N[C@@H](CCCN=C(N)N)C(=O)NCC(N)=O)NC(=O)[C@H](CC(N)=O)NC1=O | GB4 | 16.94 | inhibitor, single point
Clc1ccc2nsnc2c1NC1=NCCN1 | CP203 | 0.0007 | activator

The results are deposited in PubChem (AID504749; NCATS, 2011).